Results of single-concentration screens

Sequences of proteins named here, by UniProt entry; tags and fusion partners are left off.
UniProt P9WFT3, whole entry: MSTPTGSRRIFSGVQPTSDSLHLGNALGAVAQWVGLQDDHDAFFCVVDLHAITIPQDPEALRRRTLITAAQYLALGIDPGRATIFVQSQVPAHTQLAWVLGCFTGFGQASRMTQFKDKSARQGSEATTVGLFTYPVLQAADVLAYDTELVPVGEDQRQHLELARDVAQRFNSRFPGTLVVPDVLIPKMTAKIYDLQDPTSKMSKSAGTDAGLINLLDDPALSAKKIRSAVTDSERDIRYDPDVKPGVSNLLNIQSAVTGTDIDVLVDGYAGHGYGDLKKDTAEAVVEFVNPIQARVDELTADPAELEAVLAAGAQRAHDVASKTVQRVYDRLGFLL
UniProt I6X8D2, whole entry: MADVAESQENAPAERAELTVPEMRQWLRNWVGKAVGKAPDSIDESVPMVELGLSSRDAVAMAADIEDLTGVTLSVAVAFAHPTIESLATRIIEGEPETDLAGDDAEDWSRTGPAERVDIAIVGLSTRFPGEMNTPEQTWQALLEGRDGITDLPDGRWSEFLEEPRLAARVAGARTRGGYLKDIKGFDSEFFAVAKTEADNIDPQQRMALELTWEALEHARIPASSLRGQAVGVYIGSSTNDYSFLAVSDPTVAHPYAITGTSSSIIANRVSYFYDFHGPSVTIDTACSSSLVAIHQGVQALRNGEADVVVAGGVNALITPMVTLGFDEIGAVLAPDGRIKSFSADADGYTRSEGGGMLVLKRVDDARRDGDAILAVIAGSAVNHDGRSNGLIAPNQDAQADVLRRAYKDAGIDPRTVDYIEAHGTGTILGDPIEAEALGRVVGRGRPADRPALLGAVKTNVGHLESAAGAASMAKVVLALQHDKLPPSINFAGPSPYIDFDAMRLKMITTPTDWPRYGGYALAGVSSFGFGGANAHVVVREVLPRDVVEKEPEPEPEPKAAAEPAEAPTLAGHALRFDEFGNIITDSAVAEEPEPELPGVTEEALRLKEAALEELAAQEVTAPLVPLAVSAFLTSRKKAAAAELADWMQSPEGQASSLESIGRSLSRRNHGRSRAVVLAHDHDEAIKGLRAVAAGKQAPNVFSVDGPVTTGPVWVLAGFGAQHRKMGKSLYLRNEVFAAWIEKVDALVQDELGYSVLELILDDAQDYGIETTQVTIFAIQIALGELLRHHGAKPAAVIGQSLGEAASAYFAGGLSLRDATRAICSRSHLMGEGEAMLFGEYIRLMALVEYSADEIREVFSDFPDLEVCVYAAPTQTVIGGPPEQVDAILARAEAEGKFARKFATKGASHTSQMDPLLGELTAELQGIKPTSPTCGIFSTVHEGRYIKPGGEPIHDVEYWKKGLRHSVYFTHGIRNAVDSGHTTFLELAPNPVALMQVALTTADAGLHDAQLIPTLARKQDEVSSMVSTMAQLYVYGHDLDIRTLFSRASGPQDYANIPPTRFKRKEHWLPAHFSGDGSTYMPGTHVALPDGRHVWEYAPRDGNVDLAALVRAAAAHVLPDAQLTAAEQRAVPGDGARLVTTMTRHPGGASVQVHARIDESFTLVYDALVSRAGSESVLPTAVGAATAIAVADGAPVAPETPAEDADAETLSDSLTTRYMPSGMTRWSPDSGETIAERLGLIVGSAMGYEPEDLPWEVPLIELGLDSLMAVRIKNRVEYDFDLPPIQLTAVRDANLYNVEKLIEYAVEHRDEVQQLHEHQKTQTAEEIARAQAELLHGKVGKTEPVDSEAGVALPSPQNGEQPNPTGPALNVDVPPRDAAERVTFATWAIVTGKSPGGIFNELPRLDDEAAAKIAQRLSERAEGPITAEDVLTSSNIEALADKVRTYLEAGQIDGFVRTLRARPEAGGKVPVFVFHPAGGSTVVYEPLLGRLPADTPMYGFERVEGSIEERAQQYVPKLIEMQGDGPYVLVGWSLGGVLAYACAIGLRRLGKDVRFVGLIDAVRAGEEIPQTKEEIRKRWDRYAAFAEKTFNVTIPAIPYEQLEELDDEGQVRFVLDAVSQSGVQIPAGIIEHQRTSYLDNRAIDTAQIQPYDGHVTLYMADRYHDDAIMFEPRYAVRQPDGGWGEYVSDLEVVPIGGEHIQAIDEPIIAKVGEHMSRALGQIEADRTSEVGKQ
UniProt P9WNZ1, whole entry: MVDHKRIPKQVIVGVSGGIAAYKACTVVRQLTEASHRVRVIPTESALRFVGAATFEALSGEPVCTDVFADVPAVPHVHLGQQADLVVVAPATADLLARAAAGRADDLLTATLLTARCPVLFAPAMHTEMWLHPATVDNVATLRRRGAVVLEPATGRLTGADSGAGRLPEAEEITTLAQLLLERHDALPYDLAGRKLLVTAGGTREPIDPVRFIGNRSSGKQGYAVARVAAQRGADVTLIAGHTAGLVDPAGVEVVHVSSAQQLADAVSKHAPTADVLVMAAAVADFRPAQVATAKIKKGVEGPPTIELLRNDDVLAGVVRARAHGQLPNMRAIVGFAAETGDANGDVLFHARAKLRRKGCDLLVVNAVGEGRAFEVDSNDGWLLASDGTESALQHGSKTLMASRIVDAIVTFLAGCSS

Measurements from “University of Dundee, Small-Polar-MMV Screening Library” (2021), ChEMBL document CHEMBL3988442.

MtTrpRS: 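Tryptophan-tRNA ligase, Mycobacterium tuberculosis (UniProt P9WFT3). Enzyme assay of tryptophanyl-tRNA synthetase; the read-out is not stated. Tested at 10 µM. Direction is not recorded; retested compounds ran higher, which suggests that high means inhibition. Size under these conditions: about 65,000 compounds, about 64 of them at 50% or above in at least one test.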
Pks13 thioesterase: 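Polyketide synthase Pks13, Mycobacterium tuberculosis (UniProt I6X8D2). Enzyme assay of the thioesterase domain of polyketide synthase 13; the read-out is not stated. Tested at 30 µM. Higher reads as stronger inhibition (inferred from which compounds were picked for retests). About 67,000 compounds were tested under these conditions; 0.46% (about 300) showed 50% or more at least once.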
CoaBC: 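Coenzyme A biosynthesis protein CoaBC, Mycobacterium tuberculosis (UniProt P9WNZ1). Enzyme assay of CoaBC with a phosphate dye (Biomol Green) read at 650 nm. Tested at 30 µM. Higher reads as stronger inhibition, judged from the few compounds that gave an IC50. Most strong results did not repeat in a second test. Of about 67,000 compounds tested this way, about 40 (0.06%) reached 50% or more in at least one test.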

Each number is a percent effect as filed. How 0% and 100% were set is not recorded. Most values in the screen are low, and negative values occur. The compounds are a random part of those screened. A dash means the value is not listed here; it may have been measured.

| # | structure | MtTrpRS | Pks13 thioesterase | CoaBC |
|---|---|---|---|---|
| 1 | `COc1cccc(O)c1CN1CCCC(Nc2cccc(F)c2)C1` (configuration not stated) | -0.08796% | -31.93% | -30.47% |
| 2 | `O=C(N1CCCC1)N1C[C@H]2CCC[C@@]2(COCc2ccccn2)C1` | - | -8.601% | 4.084% |
| 3 | `Cc1cnn(CC2CCCCN2C(=O)Cc2csc(C)n2)c1` (configuration not stated) | 0.09747% | -3.081% | 6.527% |
| 4 | `OCCN1CCC(Cc2nccs2)CC1` | 3.694% | -13.25% | 3.206% |
| 5 | `CC(C)OC(=O)N1C[C@H]2CC[C@@H]1CN(C(=O)c1ccccn1)C2` | 15.03% | 18.13% | -5.353% |
| 6 | `OC1(CN2CCCC2)COCCN(c2nccs2)C1` (configuration not stated) | 0.9709% | 2.611% | 1.229% |
| 7 | `O=C1NCCCN1Cc1nc(-c2ccc(N3CCCCC3)cc2)no1` | 2.217% | 11.18% | 0.1229% |
| 8 | `Cc1nc(CN2CCN(C(=O)Cc3cccc(Cl)c3)CC2)no1` | 0.2639% | -23.93% | 0% |
| 9 | `Cc1cccc(CN2C[C@@H]3COC[C@]3(CNC(=O)c3ccno3)C2)n1` | -1.744% | -16.25% | 5.462% |
| 10 | `COCc1cccc(CNCc2c(C(C)C)nn(C)c2N(C)C)c1` | -1.976% | -1.554% | 2.813% |
| 11 | `Cc1cccc(C)c1OC1CN(C(=O)C2CCCN(C(=O)N(C)C)C2)C1` (configuration not stated) | 0.3396% | -18.73% | 6.098% |
| 12 | `CN(C)C(C(=O)N1CCN(S(N)(=O)=O)CC1)c1ccccc1F` (configuration not stated) | -2.493% | -12.04% | 2.17% |
| 13 | `CC(C)(C)c1nccc(N2CCN(C3CCS(=O)(=O)C3)CC2)n1` (configuration not stated) | 0.6552% | -13.95% | 1.831% |
| 14 | `CN(Cc1nnc(C2CC2)n1C)C1CCN(CCc2cccs2)C1` (configuration not stated) | 1.398% | -20.15% | 3.226% |
| 15 | `CCS(=O)(=O)N1CCN(CCn2cccn2)c2nc(C)ccc2C1` | -4.809% | -10.06% | 0% |
| 16 | `CC(C)(CNC(=O)c1ccco1)CNC(=O)c1ccco1` | 1.727% | 6.052% | -3.558% |
| 17 | `O=C1NCCN1C1CCN(CC(O)c2ccccc2F)CC1` (configuration not stated) | 0.4078% | -15.43% | 7.383% |
| 18 | `O=C(O)C1(Cc2cc(-c3ccccc3F)no2)CCOCC1` | - | - | 1.211% |
| 19 | `O=C(CN1CCN(c2ccnc3c(F)ccc(F)c23)CC1)N1CCCC1` | 7.873% | 4.678% | 7.78% |
| 20 | `CC(C)(C(=O)N1CCC(C(N)=O)C1)c1ccccc1F` (configuration not stated) | 0.2018% | -6.034% | 0.2016% |
| 21 | `Cc1nn(C)c(C)c1C1COCCN1C(=O)CCc1ccccc1` (configuration not stated) | -7.397% | -3.863% | 5.735% |
| 22 | `CC(C)(C)C(O)CN1CCN(C(=O)c2cccc3ncccc23)CC1` (configuration not stated) | -3.786% | -10.84% | 1.295% |
| 23 | `Cc1cc(C)n(CCCNC(=O)C(C)NC(=O)CC2CCCCC2)n1` (configuration not stated) | 2.036% | -13.41% | -1.976% |
| 24 | `Cc1cc2nc(-c3ccccc3)cc(NCC3CCS(=O)(=O)C3)n2n1` (configuration not stated) | -4.122% | -58.67% | 3.422% |
| 25 | `CCOCC(O)CN1CCN(C(=O)C2CC2)CC1` (configuration not stated) | -1.017% | -0.1026% | 4.152% |
| 26 | `COCC1CN(Cc2cc(C)on2)Cc2cnn(C)c21` (configuration not stated) | 0.2788% | -30.52% | 0.9677% |
| 27 | `CC1(C)CC(CN2CCC3(CCC(=O)N(C4CCC4)C3)CC2)CCO1` (configuration not stated) | 3.043% | 13.96% | 3.067% |
| 28 | `O=C(CCc1cc(O)no1)N1CCC(Cc2ccc(F)cc2)CC1` | 0.4016% | 5.916% | 0.4894% |
| 29 | `Cc1cc(C(N)=O)nc(C2(C)CCCN2Cc2cnn(C)c2C)n1` (configuration not stated) | -3.188% | -3.276% | 0.2433% |
| 30 | `CCOc1ccc(Cl)c(C(=O)N2CCN(c3ccncc3)CC2)n1` | -0.6816% | -17.87% | 5.032% |
| 31 | `O=C(C[C@H]1[C@H]2CN(c3ncccn3)C[C@@H]12)Nc1cccnc1` | 2.705% | -4.858% | -5.499% |
| 32 | `O=C(COc1ccc(Cl)cc1)Nc1cnc(N2CCOCC2)nc1` | -0.552% | 16% | 1.882% |
| 33 | `CCS(=O)(=O)N1CC(=O)N(CCOc2ccccc2)CC(O)C1` (configuration not stated) | - | 20.54% | -0.8589% |
| 34 | `CCc1nc(Cn2nc(C3CCNCC3)n(-c3ccccc3)c2=O)cs1` | -5.204% | -11.39% | 3.182% |
| 35 | `CC(Cn1cccn1)NCc1nc(-c2cccs2)no1` (configuration not stated) | -0.8772% | -7.348% | 3.84% |
| 36 | `CC(Cc1ccco1)NC(=O)CSc1nnc[nH]1` (configuration not stated) | -3.027% | -23.52% | 7.258% |
| 37 | `COc1ccc(N2CCN(C(=O)Cn3nc(C)c(C)c3C)C(C)C2)cc1` (configuration not stated) | 2.21% | 0.1528% | -1.653% |
| 38 | `Cc1ncsc1-c1nnc(C2CCN(Cc3ccccc3)CC2)o1` | - | 2.591% | -0.7282% |
| 39 | `N#Cc1cccc(CN2CC3(CCCCN3c3cccnc3)CC2=O)c1` (configuration not stated) | -3.453% | -39.3% | -6.131% |
| 40 | `CCOC(C)c1nccn1CC(=O)Nc1cc(C)on1` (configuration not stated) | -3.964% | -19.49% | 1.042% |
| 41 | `Cc1ccc(Cl)cc1N1CCC(CNC(=O)CCn2ccnc2)C1` (configuration not stated) | -0.3712% | -47.12% | 2.591% |
| 42 | `Cc1nc(CN2CCCC2c2c(C)nn(C)c2Cl)oc1C` (configuration not stated) | 6.423% | -12.47% | -0.9126% |
| 43 | `COc1ccc(NC(=O)NCc2cccc(N(C)C)n2)c(Cl)c1` | 1.3% | -22.77% | 11.36% |
| 44 | `Cc1[nH]c2c(C)cccc2c1CC(=O)N(C)CCN(C)C` | -8.707% | 2.097% | -0.4932% |
| 45 | `Cc1nc(CN2CCCn3nc(CNC(=O)C4CCC4)cc3C2)co1` | 0.6522% | -7.77% | 2.051% |

Once more, the final 3:

- COc1ccc(NC(=O)NCc2cccc(N(C)C)n2)c(Cl)c1 | MtTrpRS: 1.3%; Pks13 thioesterase: -22.77%; CoaBC: 11.36%
- Cc1[nH]c2c(C)cccc2c1CC(=O)N(C)CCN(C)C | MtTrpRS: -8.707%; Pks13 thioesterase: 2.097%; CoaBC: -0.4932%
- Cc1nc(CN2CCCn3nc(CNC(=O)C4CCC4)cc3C2)co1 | MtTrpRS: 0.6522%; Pks13 thioesterase: -7.77%; CoaBC: 2.051%